A: 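Cell assay of Leishmania donovani living inside macrophages; the read-out is not stated. Concentration: 30 µM. The record gives no direction; compounds that gave an IC50 in retests scored well above the rest, so higher reads as stronger inhibition. Size under these conditions: about 69,000 compounds, about 1,000 of them at 50% or above in at least one test.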
B: 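Polyketide synthase Pks13, Mycobacterium tuberculosis (UniProt I6X8D2). Enzyme assay of the thioesterase domain of polyketide synthase 13; the read-out is not stated. Compounds at 30 µM. Higher reads as stronger inhibition (inferred from which compounds were picked for retests). Of about 67,000 compounds tested this way, about 300 (0.46%) reached 50% or more in at least one test.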
C: 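Enzyme assay of histidyl-tRNA synthetase; the read-out is not stated. Target: Histidine-tRNA ligase, Leishmania infantum (UniProt A4I591). Tested at 30 µM. Direction is inferred from retests: higher values go with stronger inhibition. The assay is labelled LdHisRS but filed under L. infantum. Size under these conditions: about 69,000 compounds, about 410 of them at 50% or above in at least one test.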

By UniProt entry, the sequences of proteins in these tests, tags left out. Residues count along the entry.
UniProt I6X8D2, whole entry: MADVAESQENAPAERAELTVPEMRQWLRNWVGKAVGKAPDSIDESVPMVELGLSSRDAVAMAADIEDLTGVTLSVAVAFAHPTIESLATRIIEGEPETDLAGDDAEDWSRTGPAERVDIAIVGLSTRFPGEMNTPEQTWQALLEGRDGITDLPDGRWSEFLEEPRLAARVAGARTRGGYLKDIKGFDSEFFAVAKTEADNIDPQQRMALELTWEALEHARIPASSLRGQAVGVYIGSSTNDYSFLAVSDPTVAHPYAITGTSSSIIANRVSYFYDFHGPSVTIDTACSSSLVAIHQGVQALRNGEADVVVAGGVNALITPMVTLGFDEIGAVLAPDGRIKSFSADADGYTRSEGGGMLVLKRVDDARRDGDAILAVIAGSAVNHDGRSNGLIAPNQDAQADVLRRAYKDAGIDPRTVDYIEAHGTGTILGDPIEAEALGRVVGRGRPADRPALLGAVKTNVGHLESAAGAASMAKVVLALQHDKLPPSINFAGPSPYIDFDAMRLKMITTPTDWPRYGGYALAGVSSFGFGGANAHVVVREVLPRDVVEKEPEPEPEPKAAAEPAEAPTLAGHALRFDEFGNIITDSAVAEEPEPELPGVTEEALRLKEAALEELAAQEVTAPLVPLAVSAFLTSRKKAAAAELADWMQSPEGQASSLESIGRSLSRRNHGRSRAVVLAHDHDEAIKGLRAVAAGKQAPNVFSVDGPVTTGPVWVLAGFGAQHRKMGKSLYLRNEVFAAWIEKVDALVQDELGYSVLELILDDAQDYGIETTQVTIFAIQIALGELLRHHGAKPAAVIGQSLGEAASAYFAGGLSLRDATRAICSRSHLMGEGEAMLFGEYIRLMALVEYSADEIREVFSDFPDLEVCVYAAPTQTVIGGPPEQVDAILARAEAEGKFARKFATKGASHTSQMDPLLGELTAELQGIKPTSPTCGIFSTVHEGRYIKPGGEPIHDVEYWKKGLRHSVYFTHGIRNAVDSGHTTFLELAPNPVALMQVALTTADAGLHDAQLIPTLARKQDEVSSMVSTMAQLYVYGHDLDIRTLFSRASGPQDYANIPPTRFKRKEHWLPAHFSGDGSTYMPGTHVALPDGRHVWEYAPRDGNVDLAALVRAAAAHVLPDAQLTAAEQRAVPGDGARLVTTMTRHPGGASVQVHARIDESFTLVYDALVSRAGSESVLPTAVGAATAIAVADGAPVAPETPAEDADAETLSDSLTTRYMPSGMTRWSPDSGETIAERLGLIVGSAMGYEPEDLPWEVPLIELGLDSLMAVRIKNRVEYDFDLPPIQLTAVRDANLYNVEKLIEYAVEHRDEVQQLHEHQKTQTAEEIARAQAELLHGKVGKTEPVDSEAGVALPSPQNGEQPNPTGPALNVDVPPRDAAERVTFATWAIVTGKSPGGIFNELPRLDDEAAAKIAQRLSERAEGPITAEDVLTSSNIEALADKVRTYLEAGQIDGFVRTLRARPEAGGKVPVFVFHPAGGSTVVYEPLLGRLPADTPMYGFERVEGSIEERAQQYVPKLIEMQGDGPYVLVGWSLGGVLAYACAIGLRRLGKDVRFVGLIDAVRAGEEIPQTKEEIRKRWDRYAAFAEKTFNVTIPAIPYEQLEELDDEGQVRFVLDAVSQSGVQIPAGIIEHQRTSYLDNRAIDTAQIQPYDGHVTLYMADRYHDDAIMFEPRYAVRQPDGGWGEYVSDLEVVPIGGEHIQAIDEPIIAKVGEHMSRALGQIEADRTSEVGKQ
UniProt A4I591, 1-473: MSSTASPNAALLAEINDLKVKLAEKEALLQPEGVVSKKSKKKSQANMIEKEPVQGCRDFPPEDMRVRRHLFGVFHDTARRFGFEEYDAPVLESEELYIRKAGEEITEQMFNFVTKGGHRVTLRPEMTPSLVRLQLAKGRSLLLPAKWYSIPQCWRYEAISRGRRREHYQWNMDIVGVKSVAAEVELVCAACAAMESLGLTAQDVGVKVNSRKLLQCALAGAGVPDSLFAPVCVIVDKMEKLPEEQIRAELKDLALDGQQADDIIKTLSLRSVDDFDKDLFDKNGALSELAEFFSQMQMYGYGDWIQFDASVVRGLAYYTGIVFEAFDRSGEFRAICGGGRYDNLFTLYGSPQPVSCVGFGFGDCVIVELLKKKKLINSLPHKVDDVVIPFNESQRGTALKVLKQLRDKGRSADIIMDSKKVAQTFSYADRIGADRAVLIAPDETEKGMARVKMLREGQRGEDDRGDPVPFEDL

Results are given as percent effect.
The controls that fix the scale are not given in the record; negative values are as filed.
Compounds were drawn at random from those tested, without regard to their results.
Two or more numbers in one place are separate tests of the same structure; such repeats can differ widely.
A dash means the value is not listed here; it may have been measured.

| compound | A | B | C |
|---|---|---|---|
| `O=C(c1cccnc1)N1CCN(c2ccnc3ccsc23)CC1` | -25.4% | -13.41% | 12.9% |
| `CC(=O)NCC1CCN(C(=O)NCc2ccc3c(c2)OCCO3)CC1` | -7.361% | -0.1591% | 8.791% |
| `CC(C)NC(=O)[C@H]1CN(Cc2ccccc2)C[C@@H]1C(=O)c1ccccc1` | 16.97% | 14.59% | 9.79% |
| `CSc1ccc(NCC(=O)NCC(=O)N2CCCC2)cc1F` | 2.792% | -33.1% | 14% |
| `O=C(NCCCO)Nc1cccc(C[S+]([O-])Cc2ccccc2)c1` (stereo unspecified) | 16.92% | -2.9% | 24.44% |
| `CN(Cc1ccco1)C(=O)[C@@]12CNC[C@@H]1CN(C1CCCC1)C2` | - | 3.914% | 6% |
| `COc1ccc(CN2C[C@@H]3CN(S(=O)(=O)C4CC4)C[C@@H]3C2=O)cc1` | - | -19.76% | 9.709% |
| `Cc1noc(CC2CCN(Cc3ccc(CCC(C)(C)O)cc3)CC2)n1` | 18.43% | -19.26% | 16.46% |
| `Cc1nn(C)c(C)c1C1CCCN1Cc1ccc(C(N)=O)cc1` (stereo unspecified) | 20.96% | -1.223% | 16.95% |
| `c1cc(CN2CCC3(CC2)CC(N2CCCC2)CO3)co1` (stereo unspecified) | - | -22.53% | 19.42% |
| `O=C(O)C(F)(F)F.[H][C@@]12CCN(C(=O)c3cscn3)[C@@]1([H])CCN2C1CCOCC1` | 10.53% | - | - |
| `COCc1ccc(C(=O)NCCCNc2ccc(C(F)(F)F)cn2)cc1` | 30.77% | -8.503% | 16.51% |
| `CC(C)Cc1ccc(S(=O)(=O)NCCCN2CCNC(=O)C2)cc1` | 16.74% | -5.611% | 20% |
| `COCCn1c(C(=O)NC(C(N)=O)C(C)C)cc2ccccc21` (stereo unspecified) | 38.24% | 0.5365% | 2.618% |
| `O=C(O)C(F)(F)F.[H][C@@]12COC[C@]1(COCc1csc(C)n1)CN(Cc1ccoc1)C2` | 14.94% | - | - |
| `CC(C)N(C)Cc1cn2c(n1)CN(Cc1ccsc1)CC2.O=C(O)C(F)(F)F.O=C(O)C(F)(F)F` | 4.688% | - | - |
| `O=C(NCc1cnc2n1CCN(c1ncc(F)cn1)CC2)C1CCC1` | 26% | -5.738% | 9.434% |
| `CSc1ccc(C2SCC(=O)Nc3c2c(=O)[nH]n3C2CCOCC2)cc1` (stereo unspecified) | 8.833% | -41.81% | 10.53% |
| `O=C(NCCCn1cncn1)N1CCCC(N2CCCC2)C1` (stereo unspecified) | 0.2238% | -12.88% | 20% |
| `Cc1nnc(N2CCCC3(CN(Cc4nccs4)CCO3)C2)o1` (stereo unspecified) | - | -1.943% | 16.13% |
| `Cc1ccc2nc(C3CCN(CC4CC4)CC3)nn2c1.O=C(O)C(F)(F)F` | 9.983% | - | - |
| `CN(C1CCN(c2ccccn2)CC1)S(=O)(=O)c1cccs1` | 1.476% | - | 20.18% |
| `CN(C)c1cc(CNC(=O)Nc2nccs2)ccn1` | 11.89% | -21.62% | 6.838% |
| `CC(C)(C)c1nc(CN2CCOC(Cn3cccn3)C2)no1` (stereo unspecified) | 17.43% | -7.189% | 8.929% |
| `CC(C)CCN1C(=O)C2(NC(=O)c3ccccc3O2)c2ccccc21` (stereo unspecified) | 10.83% | -12.03% | 22.92% |
| `O=C(O)C(F)(F)F.O=C(O)C(F)(F)F.[H][C@]12CCC(=O)N(CCN3CCCC3)[C@@]1([H])CCN2Cc1ccc(C)s1` | 4.793% | - | - |
| `CNC(=O)CN(C)S(=O)(=O)c1c(Br)cc2[nH]c(=O)oc2c1Cl` | 30.57% | -28.18% | 6.806% |
| `O=C(NCc1ccco1)[C@@H]1CCO[C@@H]2CCN(c3ncccn3)C[C@H]21` | - | -1.134% | 19.27% |
| `O=C(c1nn(-c2ccccc2F)cc1O)N1CCCSCC1` | 6.546% | -7.114% | -27.27% |
| `CCn1cc(-c2cc(C(F)(F)F)nn2CCC#N)cn1` | 32.95% | -0.9968% | 8.642% |
| `Cc1nc(C)n(CC2CCCN(CCCS(=O)(=O)N(C)C)C2)n1` (stereo unspecified) | 15.36% | -3.05% | 6.452% |
| `O=C(C1CCOCC1)N1CC[C@@H](O)[C@@H]1Cc1ccccc1` | 8.069% | -12.74% | -222.9% |
| `O=C(O)C(F)(F)F.[H][C@@]12CCCO[C@]1([H])[C@H](NC(=O)c1nccn1C)CN2CC1CCOCC1` | 20.31% | - | - |
| `O=C(NCc1ccccn1)[C@]12COC[C@H]1CN(Cc1cccnc1)C2` | - | -19.13% | 11.11% |
| `CCN1CCCC1CNC(=O)Cc1c(-c2ccc(Cl)cc2)n[nH]c1C` (stereo unspecified) | -5.387% | -13.62% | 14.29% |
| `CC1CN(C)CCN1C(=O)Cc1cc(Cl)c2c(c1)OCCO2` (stereo unspecified) | 0.6522% | -14.75% | 11.67% |
| `Cn1cnc2cc(C(=O)NS(=O)(=O)c3ccc(F)cc3)ccc21` | 10.12% | -1.118% | 5.263% |
| `[H][C@]12CCCCN1CCC[C@@]2(O)CN1CCN(c2ccncc2C)CC1` | 35.16% | - | - |
| `CCNC(=O)[C@@H]1C[C@@H](NC(=O)c2cccnc2O)CN1Cc1ccsc1` | 19.61% | -16.68% | 22.86% |
| `COC(=O)N1CCCC(C(=O)N2CCCCC2)C1` (stereo unspecified) | 18.59% | -16.5% | -5.882% |
| `O=C1N(Cc2ccc(F)c(F)c2)CCCC12CCN(C1CCSCC1)C2` (stereo unspecified) | 22.88% | -5.41% | 43.69% |
| `CC(=O)N1N=C(COc2ccc3c(c2)OCO3)OC1c1ccc(C)cc1` (stereo unspecified) | 6.689% & -2.536% | -4.996% | 13.16% |
| `COc1ccccc1OCCCc1cncc(C(N)=O)c1` | 4.9% | 9.195% | 11.84% |
| `Cc1ccc(N2CCC3(CC2)CCN(C2CCOCC2)CC3)nn1.O=C(O)C(F)(F)F` | 14.82% | - | - |
| `Cc1cccc2c1cnn2CCCNC(=O)c1cnn(C)c1` | -22.97% | 6.356% | 5.172% |
| `O=C(NCc1cc2ccccc2[nH]1)C1CCCN(C(=O)N2CCCC2)C1` (stereo unspecified) | 39.08% | -27.73% | 25% |
| `CNC(=O)COc1ccc(CNc2c(Cl)cccc2C#N)cc1` | 20.84% | -17.4% | 17.95% |
| `Cl.c1cnc2[nH]c(C3CCCNC3)c(CN3CCCOCC3)c2c1` (stereo unspecified) | 5.408% | - | - |
| `Cc1cc(C(=O)N2CCC3(CC2)COCCN(c2cccnc2)C3)[nH]n1` | - | -36.45% | 11.97% |
| `CC(C)Sc1nnc(CCNC(=O)OC(C)(C)C)o1` | -27.41% | -17.99% | 0% |
| `COc1ccc([C@@H]2CN(c3cc(OC)ncn3)C[C@H]2N(C)C)cc1` | -4.46% | 9.012% | -4.167% |
| `CC1c2ncc(CN3CCN(C)CC3)n2CCN1Cc1ccsc1.O=C(O)C(F)(F)F.O=C(O)C(F)(F)F.O=C(O)C(F)(F)F` (stereo unspecified) | -2.978% | - | - |
| `O=C1CSC(c2ccc(Cl)cc2Cl)c2c(n(C3CCOCC3)[nH]c2=O)N1` (stereo unspecified) | 2.253% | -88% | 5.263% |
| `Cc1noc(C)c1CN(C)Cn1nccc1-c1cccnc1` | -2.621% | 6.288% | 1.754% |
| `Cc1cc(N2CCN(C(=O)c3cnn(C(C)C)c3)CC2)cc(C)n1` | -23.3% | -11.11% | 4.918% |
| `Cn1[nH]c(Br)c2/c(=N\CCN)ncnc1-2` | 38.92% | -12.74% | 27.5% |
| `CNC(=O)CS(=O)(=O)C1CCN(S(=O)(=O)c2cccc(Cl)c2C)CC1` | -58.33% | -8.361% | 3.306% |
| `CC(=O)Nc1ccc(S(=O)(=O)N2CCOC(Cn3ccnc3)C2)cc1` (stereo unspecified) | 6.283% | -21.28% | 12.86% |
| `CC(C)COC(C)C(=O)N1CCCCC1` (stereo unspecified) | 13.05% | -32.56% | 8.571% |
| `CCc1c(C)sc2nc3n(CCN4CCOCC4)nc(SC)n3c(=O)c12` | 9.764% | 2.658% | 22.5% |
| `CC(Nc1nccc(CCC(F)(F)F)n1)c1nc(-c2ccncc2)no1` (stereo unspecified) | 29.75% | -0.1683% | 25.3% |
| `CCN(CC)C(=O)C1CCC2(CCNCC2)CO1.Cl` (stereo unspecified) | 34.77% | - | - |
| `COCCc1noc(CN(C)c2nc(C)cc(C)n2)n1` | 15.06% | -45.8% | 12.59% |

6 of the entries, repeated:

{"compound": "Cc1noc(C)c1CN(C)Cn1nccc1-c1cccnc1", "A": -2.621, "B": 6.288, "C": 1.754}
{"compound": "COCCc1noc(CN(C)c2nc(C)cc(C)n2)n1", "A": 15.06, "B": -45.8, "C": 12.59}
{"compound": "CSc1ccc(NCC(=O)NCC(=O)N2CCCC2)cc1F", "A": 2.792, "B": -33.1, "C": 14}
{"compound": "Cc1ccc2nc(C3CCN(CC4CC4)CC3)nn2c1.O=C(O)C(F)(F)F", "A": 9.983}
{"compound": "O=C(NCc1ccccn1)[C@]12COC[C@H]1CN(Cc1cccnc1)C2", "B": -19.13, "C": 11.11}
{"compound": "COC(=O)N1CCCC(C(=O)N2CCCCC2)C1", "stereo": "stereo unspecified", "A": 18.59, "B": -16.5, "C": -5.882}

Source: ChEMBL document CHEMBL3988442, “University of Dundee, Small-Polar-MMV Screening Library” (2021).